Assay: pH-gradient driven loading of agents in HL 60 vesicles

O=S1(=O)OC(c2cc(Br)c(O)c(Br)c2)(c2cc(Br)c(O)c(Br)c2)c2ccccc21 [bromophenol blue]
increase of loading efficiency in HL 60 vesicles by pH gradient (pH 9.5 inside vesicles, agent solution at pH 4, versus control without gradient): 2-3 fold

Cn1c(=O)c2c(ncn2C)n(C)c1=O [caffeine]
drug loading in HL 60 vesicles (basic drug) (pH 3.5 inside vesicles, caffeine solution at pH 9 or sonicated in HBSS pH 7.5, versus HBSS pH 7.5): dramatically increased
